According to patent US20240101717A1 (BIONECURE THERAPEUTICS, published 2024):

What was measured:
human Trop-2 (human) [1] = test: flow cytometry on MDA-MB-468 cells (Trop-2 but no HER2); parental comparator
human Trop-2 (human) [2] = test: flow cytometry on MDA-MB-468 cells (Trop-2 but no HER2); comparator as printed

- binding (human Trop-2 (human) [1]): binds
- binding (human Trop-2 (human) [2]): binds
B1: anti-Trop-2 antibody A1,2X4 (antibody, V domains shown)
VH: QVQLQESGPGLVKPSETLSLTCTVSGFSLTSYGVNWIRQPPGKGLEWIGVMWAGGSTNYNSALMSRLTISKDTSKNQFSLKLSSVTAADTAVYYCARDENWDGAWFAYWGQGTLVTVSS
VL: DIVMTQSPDSLAVSLGERATINCKSSQSLLNSGTRKNYLAWYQQKPGQPPKLLISWASSRESGVPDRFSGSGSGTDFTLTISSLQAEDVAVYYCKQSYNLFTFGGGTKVEIK

No constants are given. Whether binding was seen depends on the method and setting. Binding calls can cover weak binding; strength is not graded here.
